# Assay results reported in PubChem BioAssay AID504834 (National Center for Advancing Translational Sciences (NCATS), 2011).
# Screen size: about 320,000 compounds; about 22,000 (6.9%) were called active. Inconclusive results, whose numbers are uncertain, are shown with a selection of clear calls. Calls follow the shape of the dose curve; as a rule, active = well fitted inhibition curve with a large enough effect; inconclusive = small, poorly fitted or top-dose-only effect, or another doubt; inactive = no such curve, though single readings can be large or run the other way. Potencies beside an inconclusive call are fits to weak or partial responses and may not hold up.
# Assay: Primary qHTS for delayed death inhibitors of the malarial parasite plastid, 96 hour incubation
# Conditions: P. falciparum luciferase reporter growth; series mostly up to 28.7 µM
# In short: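 Erythrocytes infected with luciferase-expressing P. falciparum were dispensed at 2% hematocrit and 0.05% parasitemia (final), then incubated with compounds 96 hours at 37 C in 5% CO2. Luminescence after detection reagent addition reported growth.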
# Potency is read from the fitted curve at half-maximal effect.
row,Structure (SMILES),Potency
1,COc1ccc([C@H]2[C@H]3C=CC[C@@H](C)[C@@H]3C(=O)N2Cc2ccccc2)cc1Cl,"inconclusive: 11.7 µM [inhibitor, single point]"
2,CC1(C)Oc2ccc3ccc(=O)oc3c2/C(=C/Nc2ccccc2)C1=O,inactive
3,O=C(/C=C/c1ccc(O)cc1)c1ccc(O)cc1O,"inconclusive: 18.5 µM [inhibitor, single point]"
4,O=C(NCc1cccc(OC(F)(F)F)c1)C1CCC(=O)N(Cc2cccc(F)c2)C1 (stereo unspecified),"inconclusive: 14.7 µM [inhibitor, partial curve, poor fit]"
5,COC(=O)c1sccc1NC(=O)c1ccc(OC)cc1OC,inactive
6,COc1ccc(C(=O)NCC(O)COc2ccc(C(C)(C)C)cc2)cc1[N+](=O)[O-] (stereo unspecified),active: 6.57 µM
7,CCOC(=O)C1CCCN(C(=O)COc2ccc(N(C)S(=O)(=O)c3ccc(C)cc3)cc2)C1 (stereo unspecified),"inconclusive: 11.7 µM [inhibitor, partial curve, poor fit]"
8,COC(=O)c1cc2nc(-c3ccc(C)cc3)cc(C(F)(F)F)n2n1,"inconclusive: 9.28 µM [inhibitor, partial curve]"
9,NS(=O)(=O)c1ccc(CCNC(=O)CNC(=O)C2CCCCC2)cc1,active: 11.7 µM
10,Cc1ccc(OCCNC(=O)c2ccc(NC(=O)CC3SC(N4CCCC4)=NC3=O)cc2)cc1 (stereo unspecified),"inconclusive: 2.62 µM [inhibitor, full curve, poor fit]"
11,O=C(Cc1ccccc1)Nc1nnc(-c2ccco2)o1,"inconclusive: 10.4 µM [inhibitor, single point]"
12,COc1cc(OC)cc(C(=O)NCCCn2ccnc2)c1,inactive
13,O=C(c1ccc(CNc2c(N3CCOCC3)c(=O)c2=O)cc1)N1CC=C(c2ccccc2)CC1,"inconclusive: 11.7 µM [inhibitor, single point]"
14,COc1ccc(CCNC(=O)[C@@H](NC(=O)N2CCn3c2nc2ccccc23)C(C)C)cc1OC,"inconclusive: 9.28 µM [inhibitor, single point]"
15,N#CC(CCN1CCOCC1)(c1ccccc1)c1ccccc1,"inconclusive: 18.5 µM [inhibitor, single point]"
16,CC1=C(C(=O)Nc2cc(-c3cccc(F)c3)[nH]n2)C2(CCCCC2)OC1=O,inactive
17,Cc1cccc(-c2noc(CCCC(=O)Nc3cccnc3)n2)c1,inactive
18,COc1ccc(S(=O)(=O)N2CCC(C(=O)NCC(c3cccs3)N(C)C)CC2)cc1 (stereo unspecified),"inconclusive: 18.5 µM [inhibitor, single point]"
19,O=C(CSc1nc(=O)n2ccccc2n1)N1CCC(Cc2ccccc2)CC1,"inconclusive: 11.7 µM [inhibitor, single point]"
20,O=C(Nc1c(Cl)ccc2nsnc12)c1ccc([N+](=O)[O-])o1,"inconclusive: 7.38 µM [inhibitor, partial curve]"
21,CC(=O)c1cnc2nc(SCc3ccccc3C)nn2c1C,inactive
22,COc1cc(CNCCc2ccccc2F)ccc1OCC(=O)N1CCCCC1,active: 13.1 µM
23,O=C(c1ccc([N+](=O)[O-])cc1)N1CCN(C(=O)c2cccnc2)CC1,"inconclusive: 13.1 µM [inhibitor, single point]"

row,Structure (SMILES),Potency
1,Cc1ccc(Cn2ccc(NC(=O)c3noc4c3CCCCC4)n2)cc1,inactive
2,Cc1ccc(S(=O)(=O)NN2C(=O)c3ccccc3NC2c2ccccc2O)cc1 (stereo unspecified),"inconclusive: 8.28 µM [inhibitor, single point]"
3,CC(=O)c1ccc(S(=O)(=O)N(C)CCCC(=O)N(C)Cc2ccccc2F)cc1,"inconclusive: 13.1 µM [inhibitor, single point]"
4,O=C(Cc1ccccc1F)Nc1ccccc1N1CCCC1,"inconclusive: 18.5 µM [inhibitor, single point]"
5,CC1(C)Cc2c(sc(NC(=O)/C=C/C(=O)O)c2C#N)CO1,active: 2.94 µM
6,CCCN1C(=O)/C(=C/c2ccncc2)SC1=S,inactive
7,CC(C)CN(C(=O)CCCOc1ccc(Cl)cc1Cl)c1c(N)n(Cc2ccccc2)c(=O)[nH]c1=O,"inconclusive: 18.5 µM [inhibitor, single point]"
8,CCN(c1ccccc1)S(=O)(=O)c1ccc(C(=O)Nc2ncccc2C)cc1,inactive
9,CCOc1ccc(S(=O)(=O)NCc2csc(C)n2)cc1,"inconclusive: 18.5 µM [inhibitor, single point]"
10,O=C(O)CCCCCNS(=O)(=O)c1ccc2c(c1)OCCO2,"inconclusive: 0.522 µM [inhibitor, full curve, poor fit]"
11,Cc1cc(C)n(-c2nnc(C)n2/N=C/c2ccc(O)cc2)n1,inactive
12,O=C(NCCCn1ccnc1)Nc1ccc(Cl)c(Cl)c1,active: 2.08 µM
13,CSc1ccccc1C(=O)NCCSc1ccc(C)cc1,inactive
14,Cc1oc(S(=O)(=O)N(C)C)cc1C(=O)Nc1ccc(Cl)cc1,"inconclusive: 0.0329 µM [inhibitor, full curve, poor fit]"
15,CCCCNC(=O)N(O)C1N(/N=C/c2ccccc2F)C(=S)SC1(C)C (stereo unspecified),"inconclusive: 6.57 µM [inhibitor, partial curve]"
16,CSCCC(NC(=O)c1ccc(Cl)cc1Cl)C(=O)OC(C)C(=O)NCc1ccco1 (stereo unspecified),"inconclusive: 0.522 µM [inhibitor, full curve, poor fit]"
17,Cc1sc2nc3c(C(=O)N4CCCC4)cc(C(=O)c4ccccc4O)cn3c(=O)c2c1C,"inconclusive: 16.5 µM [inhibitor, single point]"
18,CSc1nc(C)c(Cl)c(C)c1C#N,"inconclusive: 1.31 µM [inhibitor, full curve, poor fit]"
19,O=C(O)[C@@H](S)[C@H](S)C(=O)O,active: 1.69 µM
20,COc1cc(-c2csc(NC3CCCCC3)n2)cc(OC)c1OC,"inconclusive: 14.7 µM [inhibitor, single point]"
21,CC1C/C(=N\NC(=S)NCc2ccccc2)CC(C)(C)C1 (stereo unspecified),active: 4.15 µM
22,CCN(CC(=O)Nc1sc2c(c1C#N)CCC(C)C2)CC(=O)NC1CCS(=O)(=O)C1 (stereo unspecified),active: 11.7 µM
23,CN(C)c1ccc(/C=C(\NC(=O)c2ccccc2)C(=O)NCCN2CCOCC2)cc1,active: 9.28 µM

# Part of the list above, as tab-separated lines:
row	Structure (SMILES)	Potency
17	Cc1cccc(-c2noc(CCCC(=O)Nc3cccnc3)n2)c1	inactive
18	COc1ccc(S(=O)(=O)N2CCC(C(=O)NCC(c3cccs3)N(C)C)CC2)cc1 (stereo unspecified)	inconclusive: 18.5 µM [inhibitor, single point]
